Assay [1] has as its target T1, Flag-tagged DUB3 (human) (UniProt Q6R6M4).
T1 sequence: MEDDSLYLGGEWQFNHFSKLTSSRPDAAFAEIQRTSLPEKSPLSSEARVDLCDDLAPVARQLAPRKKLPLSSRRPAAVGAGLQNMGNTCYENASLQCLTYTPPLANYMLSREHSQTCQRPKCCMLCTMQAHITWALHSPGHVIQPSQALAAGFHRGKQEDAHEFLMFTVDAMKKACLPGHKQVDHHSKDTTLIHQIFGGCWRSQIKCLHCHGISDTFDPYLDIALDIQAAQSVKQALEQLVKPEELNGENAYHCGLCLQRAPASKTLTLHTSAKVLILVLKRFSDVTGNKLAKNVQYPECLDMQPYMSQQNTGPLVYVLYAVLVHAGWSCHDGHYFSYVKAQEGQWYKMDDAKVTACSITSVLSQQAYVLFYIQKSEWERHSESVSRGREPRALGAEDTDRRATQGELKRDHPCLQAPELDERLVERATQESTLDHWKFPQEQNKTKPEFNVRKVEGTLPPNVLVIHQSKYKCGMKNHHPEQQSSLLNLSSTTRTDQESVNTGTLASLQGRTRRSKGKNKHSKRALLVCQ
Put plainly: co-IP; A549 cells transfected with Flag-DUB3 plasmid or control plasmid; total cell lysates immunoprecipitated with anti-Flag antibodies; probed with anti-Flag or anti-cyclin A antibodies.

Assay [2] has as its target cyclin A (human (endogenous in A549)). Put plainly: co-IP; untransfected A549 cell lysates immunoprecipitated with control IgG or anti-cyclin A antibodies; probed with anti-DUB3 or anti-cyclin A antibodies (endogenous proteins).

These are yes or no findings as the source states them, for the method shown. Binding seen in cells or lysates may run through a third protein. A result given as binding can be weak or reduced; the word gives no strength. For some assays here: Tags and fused reporters may be left off the sequences shown.

With cyclin A (human (endogenous in A549)), the binding result in assay [1] is listed as “binds”.

B1: DUB3 (enzyme, UniProt Q6R6M4 1-530)
chain: MEDDSLYLGGEWQFNHFSKLTSSRPDAAFAEIQRTSLPEKSPLSSEARVDLCDDLAPVARQLAPRKKLPLSSRRPAAVGAGLQNMGNTCYENASLQCLTYTPPLANYMLSREHSQTCQRPKCCMLCTMQAHITWALHSPGHVIQPSQALAAGFHRGKQEDAHEFLMFTVDAMKKACLPGHKQVDHHSKDTTLIHQIFGGCWRSQIKCLHCHGISDTFDPYLDIALDIQAAQSVKQALEQLVKPEELNGENAYHCGLCLQRAPASKTLTLHTSAKVLILVLKRFSDVTGNKLAKNVQYPECLDMQPYMSQQNTGPLVYVLYAVLVHAGWSCHDGHYFSYVKAQEGQWYKMDDAKVTACSITSVLSQQAYVLFYIQKSEWERHSESVSRGREPRALGAEDTDRRATQGELKRDHPCLQAPELDERLVERATQESTLDHWKFPQEQNKTKPEFNVRKVEGTLPPNVLVIHQSKYKCGMKNHHPEQQSSLLNLSSTTRTDQESVNTGTLASLQGRTRRSKGKNKHSKRALLVCQ
As for B1, the binding entry in assay [2] is recorded as “binds”.

For the origin of these results see PMC6523561.
